Assay results published in publication PMC9561264.
Construct, isoform or probe ends are uncertain for at least one entry. For part of these data: No signal at the amounts used counts as a negative. For part of these data: At least one verdict rests on a figure or table, not on a statement of the authors. For part of these data: A weaker result is weaker than the reference pair of the same experiment.

By UniProt entry, the sequences of proteins in these tests, tags left out. Residues count along the entry.
UniProt P01106, 16-454: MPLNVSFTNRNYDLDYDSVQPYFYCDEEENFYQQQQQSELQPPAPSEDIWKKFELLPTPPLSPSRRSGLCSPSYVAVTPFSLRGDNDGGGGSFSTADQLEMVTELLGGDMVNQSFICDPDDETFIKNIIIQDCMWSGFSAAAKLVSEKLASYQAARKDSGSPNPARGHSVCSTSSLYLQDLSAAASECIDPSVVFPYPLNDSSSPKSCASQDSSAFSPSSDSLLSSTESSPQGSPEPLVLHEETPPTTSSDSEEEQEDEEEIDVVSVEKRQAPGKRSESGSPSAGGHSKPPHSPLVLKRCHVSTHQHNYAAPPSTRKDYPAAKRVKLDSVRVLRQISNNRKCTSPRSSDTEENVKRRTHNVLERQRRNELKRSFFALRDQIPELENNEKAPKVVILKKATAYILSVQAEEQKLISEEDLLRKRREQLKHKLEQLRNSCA
UniProt O15527, whole entry: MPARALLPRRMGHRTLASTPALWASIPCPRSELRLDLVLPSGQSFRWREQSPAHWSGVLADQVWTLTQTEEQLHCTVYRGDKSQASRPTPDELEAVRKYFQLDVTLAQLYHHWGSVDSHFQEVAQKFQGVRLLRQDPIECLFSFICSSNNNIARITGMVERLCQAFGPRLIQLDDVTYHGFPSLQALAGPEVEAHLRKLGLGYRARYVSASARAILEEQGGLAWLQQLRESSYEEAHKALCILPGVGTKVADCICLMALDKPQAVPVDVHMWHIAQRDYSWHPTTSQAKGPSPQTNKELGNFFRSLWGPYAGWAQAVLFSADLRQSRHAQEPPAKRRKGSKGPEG
UniProt O15527, whole entry C241A: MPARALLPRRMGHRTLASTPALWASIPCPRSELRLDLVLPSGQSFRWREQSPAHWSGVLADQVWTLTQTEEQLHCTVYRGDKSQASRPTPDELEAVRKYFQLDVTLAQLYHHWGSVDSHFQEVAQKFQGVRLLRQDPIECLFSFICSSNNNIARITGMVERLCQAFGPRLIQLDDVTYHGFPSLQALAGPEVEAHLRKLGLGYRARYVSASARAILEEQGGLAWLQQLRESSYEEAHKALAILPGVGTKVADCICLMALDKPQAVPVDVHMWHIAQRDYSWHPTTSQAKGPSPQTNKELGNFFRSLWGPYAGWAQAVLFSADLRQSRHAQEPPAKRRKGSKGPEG

Experiments:
c-Myc = c-Myc (UniProt P01106); assay: binding control, method not stated; conditions: activity assay conditions; 8-oxoguanine at position 26 of strand 1 (written G); commercial protein; protein details: GST, quantum dot in E-box AFM; label: 5' fluorophore on top strand
hOGG1 wild type (human) = hOGG1 wild type (human) (UniProt O15527); assay: EMSA; conditions: dimers only, redox independent; EMSA room temp 30 min, 15% native PAGE 0.5x TBE 4°C; interaction buffer 20 mM Tris-HCl pH 7.6, 200 mM NaCl (Fig. S12); recombinant protein; label: 5' AF647 (FP) or Cy3 (EMSA) on bottom strand; letters put together from the description
hOGG1 C241A (human) = hOGG1 C241A (human) (UniProt O15527); assay: fluorescence polarisation; conditions: KD in Fig. S1 table, not in material; 8-oxoguanine at position 10 of strand 1 (written G); FP at 25°C with 5 nM labelled DNA; interaction buffer 20 mM Tris-HCl pH 7.6, 200 mM NaCl (Fig. S12); recombinant protein; protein details: N-terminal His6 (removed where required); label: 5' AF647 (FP) or Cy3 (EMSA) on bottom strand

GCATGCCTCGAGTCTAGAGGTACCAGATCTGATCCTCTAGAGTCGACC (double strand) [oxoG activity substrate 48 bp]
binding result (c-Myc): no binding

GCATGCCTCGAGTCTAGAGGTACCAGATCTGATCCTCTAGAGTCGACC (double strand) [undamaged (nsp) 48 bp]
binding result (hOGG1 wild type (human)): binds more weakly

GCATGCCTCGAGTCTAGAGGTACCAGATCTGATCCTCTAGAGTCGACC (double strand) [oxoG 48 bp (EMSA/FP)]
binding result (hOGG1 C241A (human)): binds more weakly
